In patent US20260116920A1 (PEPTIDREAM INC., priority 2021, published 2026):

Experiment: general procedure: Fmoc solid-phase peptide synthesis; Sieber Amide Resin (Watanabe Chemical Industries, Ltd., 0.48 mmol/g); DIPCI/Oxyma Pure
Conditions: whole synthesis, UV 225 nm, scale of the general procedure 0.48 mmol/g, 0.26 g resin, thioether ring, sequence written open

## Ala-Val-MePhe-Val-Trp-Asn-Tyr-Tyr-Ile-Ile-K(MePEG4c)-Arg-Phe-MeTyr-Cys
  final purity (method not given): 92.3%
